A number of entries come with more than one value. The other results are left out here. The source may hold further records. Values given together differ, and nothing given here explains why; they may come from other doses, times, organisms or constructs than stated.
Target: Human Constitutive (Hu C-20S) β5 Active Subunit (Homo sapiens, UniProt P28074)
Test: IC50 determination, human constitutive 20S proteasome β5c (suc-LLVY-AMC hydrolysis)
Settings: read-out: Hu c-20S IC50; Table 2; several values in a cell are repeat determinations
Description: Experiments to determine IC50 values against β5i and β5c for compounds were carried out in 96-well plates. In brief, 1 μL of compound in a 3× series dilution in DMSO at concentration ranging from 100 μM-0.0017 μM were spotted to the bottom of a black 96-well plate with solid bottom. 100 μL of reaction buffer (20 mM THEPES, 0.5 mM EDTA, pH7.5, 0.1% BSA) containing enzyme (final concentration was 0.2 nM for c-20S, and 0.4 nM for i-20S) and substrate (25 μM for suc-LLVY-AMC for β5c and 15 μM for Ac-ANW-AMC) were dispensed into each well, and the plate was then spun at 1000× rpm for 1 minute and then shaked on a shaker for 1 minute. Time course of the hydrolysis of each well was followed by recording the fluorescence of product AMC (Ex 360 nm and Em 460 nm) on aSpectraMax M5 plate reader for 1.5-2 hours. Initial reaction velocity of each well was fit to adose-dependent inhibition equation using PRISM to determine the IC50. IC50S were determined only for β5i and β5c (Table 2). SDS was used as activator for both enzymes at concentration 0.02%.

Q: How did the IC50 turn out when `CC(C)CCC(=O)N[C@@H](CC(=O)N1CCCC[C@@H]1C)C(=O)N[C@@H](C)c1ncc(-c2ccc(F)cc2F)[nH]1` was run?
A: The IC50 was 6.36, 9.66, 10.7, 8.73 µM.

Q: With `CC(C)CCC(=O)N[C@@H](CC(=O)N1CCC[C@@H]1c1ccccc1)C(=O)N[C@@H](C)c1nc2ccccc2[nH]1` as the molecule, how does the IC50 read?
A: Its IC50 is 16.8, 13.7, 53.1, 9.3, 10.6, 50 µM.

Q: With `CC[C@H]1CCCCN1C(=O)C[C@H](NC(=O)C1CC1C(C)C)C(=O)N[C@@H](C)c1nc2c(F)cccc2[nH]1` (stereo partly drawn) [CEN-10, N—((S)-4-((S)-2-Ethylpiperidin-1-yl)-1-(((S)-1-(4-fluoro-1H-benzo[d]imidazol-2-yl)ethyl)amino)-1,4-dioxobutan-2-yl)-2-isopropylcyclopropane-1-carboxamide] as the molecule, how does the IC50 read?
A: Its IC50 is 2.3 µM and 1.72 µM.

Q: How did the IC50 turn out when `CC(C)CCC(=O)N[C@@H](CC(=O)N1CCC[C@@H]1c1ccccc1)C(=O)N[C@H](C)c1nc2ccccc2[nH]1` [CEN-49, N—((S)-1-(((R)-1-(1H-Benzo[d]imidazol-2-yl)ethyl)amino)-1,4-dioxo-4-((R)-2-phenylpyrrolidin-1-yl)butan-2-yl)-4-methylpentanamide] was run?
A: Its IC50 is 8.96 µM and 50 µM.

Q: For `C[C@H](NC(=O)[C@H](CC(=O)N1CCCC1)NC(=O)CCc1ccccc1)C(=O)NCc1cccc2cn[nH]c12` [CF-503390], which IC50 is on record?
A: Its IC50 is 5.5 µM and 2.72 µM.

Reference: patent US11203613B2, “Peptidomimetic proteasome inhibitors” (CORNELL UNIVERSITY, priority 2017, dated 2021)
